Data taken from paper PMC4028990.
Results are given in words; binding and its absence hold for the method and conditions named. In cells and extracts the contact can be indirect. Some results given as binding are weak or reduced against the parent protein; the word gives no strength. Tags and fused reporters may be left off the sequences shown.

Chains of the proteins cited; added tags and fusions are not shown. Lines headed by an entry give the natural chain unless they say otherwise; changes in a name come on top. A line that says so, or that is headed by a name, gives the form on record, which may keep a tag or linker.
UniProt Q969H0: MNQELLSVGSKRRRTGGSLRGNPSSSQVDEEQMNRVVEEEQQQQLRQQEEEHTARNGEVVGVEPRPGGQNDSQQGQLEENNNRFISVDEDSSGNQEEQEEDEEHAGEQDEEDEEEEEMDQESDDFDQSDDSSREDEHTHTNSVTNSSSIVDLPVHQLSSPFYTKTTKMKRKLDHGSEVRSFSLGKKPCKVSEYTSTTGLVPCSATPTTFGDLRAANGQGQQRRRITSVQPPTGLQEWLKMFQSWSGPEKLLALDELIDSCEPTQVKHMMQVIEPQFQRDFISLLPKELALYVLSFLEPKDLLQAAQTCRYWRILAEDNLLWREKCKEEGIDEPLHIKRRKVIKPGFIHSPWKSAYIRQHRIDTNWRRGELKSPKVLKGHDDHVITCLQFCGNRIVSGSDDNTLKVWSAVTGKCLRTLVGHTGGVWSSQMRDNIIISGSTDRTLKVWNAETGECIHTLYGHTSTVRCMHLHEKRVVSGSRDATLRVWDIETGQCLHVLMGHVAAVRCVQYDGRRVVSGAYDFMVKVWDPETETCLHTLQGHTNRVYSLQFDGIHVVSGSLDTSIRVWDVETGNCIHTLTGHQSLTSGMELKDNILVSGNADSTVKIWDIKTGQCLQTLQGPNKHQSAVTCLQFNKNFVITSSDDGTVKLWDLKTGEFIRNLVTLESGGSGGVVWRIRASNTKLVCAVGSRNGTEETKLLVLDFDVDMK
FLAG-FBXW7γ (Q969H0-4, form named): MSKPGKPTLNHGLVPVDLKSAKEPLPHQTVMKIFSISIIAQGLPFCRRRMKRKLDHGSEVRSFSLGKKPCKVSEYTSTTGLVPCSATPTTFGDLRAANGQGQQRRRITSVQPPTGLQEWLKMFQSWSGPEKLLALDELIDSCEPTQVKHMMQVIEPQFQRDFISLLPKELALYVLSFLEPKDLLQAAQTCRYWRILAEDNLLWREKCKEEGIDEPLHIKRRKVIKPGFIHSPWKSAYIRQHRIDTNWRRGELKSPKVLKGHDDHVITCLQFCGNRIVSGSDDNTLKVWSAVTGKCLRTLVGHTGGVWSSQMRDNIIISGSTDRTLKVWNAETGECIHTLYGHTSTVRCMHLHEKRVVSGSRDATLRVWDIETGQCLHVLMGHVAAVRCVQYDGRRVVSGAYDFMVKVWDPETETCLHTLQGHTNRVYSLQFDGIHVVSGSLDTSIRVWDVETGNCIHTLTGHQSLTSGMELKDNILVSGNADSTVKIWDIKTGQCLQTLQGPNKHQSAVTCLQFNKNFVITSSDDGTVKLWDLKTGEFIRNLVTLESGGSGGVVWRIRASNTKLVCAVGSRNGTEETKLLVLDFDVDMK

T1: myc-UBE2QL1 (human) (UniProt A1L167)
T1 sequence: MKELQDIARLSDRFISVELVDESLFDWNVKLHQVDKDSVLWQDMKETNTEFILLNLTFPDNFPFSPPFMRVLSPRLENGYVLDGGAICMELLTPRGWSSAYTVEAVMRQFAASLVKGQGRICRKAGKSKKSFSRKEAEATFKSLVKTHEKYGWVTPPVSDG

B1: myc-UBE2QL1 (enzyme, UniProt A1L167 1-161)
chain: T1 sequence

Columns and labels:
Test in all cases: co-IP; HEK-293 cells co-transfected; lysis in NETN buffer (50 mM Tris-HCl pH 7.5, 150 mM NaCl, 1 mM EDTA, 1% Nonidet P-40); anti-myc or anti-FLAG antibody on protein G Dynabeads, 2 hr at 4°C; immunoblot with the reciprocal antibody
myc-UBE2QL1 (human) = biological target: T1, myc-UBE2QL1 (human)
FLAG-FBXW7α = FLAG-FBXW7α (UniProt Q969H0)
FLAG-FBXW7γ = FLAG-FBXW7γ (UniProt Q969H0)

Row | Molecule | binding (myc-UBE2QL1 (human)) | binding (FLAG-FBXW7α) | binding (FLAG-FBXW7γ)
1 | FLAG-FBXW7γ (from UniProt Q969H0-4 1-589) | binds |  | 
2 | FLAG-FBXW7α (from UniProt Q969H0-1 1-707) | binds |  | 
3 | B1 |  | binds | binds
